At least one structure is not confirmed: it was looked up by name or label, or the drawing left a doubt.
Columns and labels:
Lipase MY = assay: Two phase Lipase MY hydrolysis of HPPA-Me in organic solvent/water mixtures; assay type: biochemical, Candida rugosa
Experimental: A. 75% organic solvent/25% aqueous buffer--Fifty milligrams of R,S-HPPA-Me was combined in 10 ml Scintillation vial with 7.5 ml of organic solvent, 2.5 ml of 50 mM phosphate buffer pH 6.0, and 5 mg Lipase MY. The reactions were placed on shaker and shaken for a period of 0-43 hours with samples being taken at various times.
B. 25% organic solvent/75% aqueous buffer--Fifty milligrams of R,S-HPPA-Me was combined, in 10 ml Scintillation vial with 2.5 ml of organic solvent, 7.5 ml 50mM phosphate buffer (pH 6.8), and 5 mg Lipase MY. The reactions were shaken for a period of 0-143 hours with samples being taken at various time points.
The data in Table 2 represents the % conversion and % R-HPPA produced using the indicated organic solvents in a two-phase system wherein 75% […] of the total vehicle (solvent) was water and the balance (25%) was organic solvents.

CSC-2 = assay: Effect of additives and solvents on hydrolysis of ketoprofen monoglyceride by CSC-2; assay type: biochemical, Candida rugosa; settings: solvent/buffer 1:1 two phase, 26 hours
Experimental: Hydrolysis of ketoprofen-monoglyceride (50mg) was carried out in various DMF-100mM (NH4)H2 PO4 buffer (pH 5.5) mixtures. In each flask a solution of ketoprofen monoglyceride (50mg) in DMF (200ul) was added. DMF was added followed by 100mM (NH4)H2 PO4 buffer. […] After 22 hours, 2%, 5%, and 10% DMF samples were acidified, extracted with CHCl3 (2×10ml) and analyzed. The other samples were analyzed directly as in Example 18. The acid produced decreases with increasing amount of DMF.
Small amounts of DMF were added to the reaction mixture to increase the solubility of KPG. In all cases 100mM ammonium phosphate buffer (pH 5.5) was used and 2% (v/v) detergents were added and the total volume was 10ml. […]
The presence of a surfactant like Tween increases the solubility o lipophilic compounds in water. […] After 20 hours at 250 rpm and 35° C. the reaction mixtures were acidified, extracted and analyzed by the usual HPLC procedure as in Example 18.
Various surfactants were used at 2% of the reaction volume to determine their effect on the enzymatic reaction involving the conversion of ketoprofen monoglyceride (KPG) to ketoprofen (KP). […] The %acid and %ee were determined by the method of Example 18. […]
75 mg of KPG (in the absence of DMF) was individually weighed into 50 ml Erlenmeyer flasks. […] The %ee was determined as per Example 18. […]

In the case of `FC(F)(Cl)C(F)(Cl)Cl` [trichlorotrifluoroethane], the “% R” value (Lipase MY; solvent 25%, 5.3 hr) was 100%, the “Conversion (ester/acid)” value (Lipase MY; solvent 25%, 5.3 hr) was 49% and the “% R” value (Lipase MY; solvent 75%, 2.7 hr) was 85%. For the same compound, the “Conversion (ester/acid)” value (Lipase MY; solvent 75%, 2.7 hr) was 60%, the “EE of S-acid” value (CSC-2) was 99% and the “Relative Rate” value (CSC-2; buffer = 100) was 123.
